Results: US20260118369A1
These are yes or no findings as the source states them, for the method shown. Some results given as binding are weak or reduced against the parent protein; the word gives no strength.

By UniProt entry, the sequences of proteins in these tests, tags left out. Where a name states a change or a piece, a line headed by the entry shows the natural chain unless it says otherwise. Residues count along the entry.
UniProt P12111, residues 3101-3177: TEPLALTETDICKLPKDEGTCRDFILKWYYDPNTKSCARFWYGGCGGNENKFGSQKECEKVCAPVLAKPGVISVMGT

Key:
[1] = target: human endotrophin as present in tissue and serum samples (human) (UniProt P12111); test: ELISA of human serum samples
[2] = target: endotrophin recombinant protein (Sino Biologicals, Col6A3, catalog #16125-H07H) (human) (UniProt P12111); test: sandwich ELISA, ETN4.1 as coated capture antibody
[3] = target: endotrophin recombinant protein (Sino Biologicals, Col6A3, catalog #16125-H07H) (human) (UniProt P12111); test: sandwich ELISA, ETN-1Rb as detection antibody

| Binder | binding [1] | binding [2] | binding [3] |
| --- | --- | --- | --- |
| ETN4.1 (antibody, V domains shown) VH: EVQLLESGGGLVQPGGSLRLSCAASGFSFSSGYYICWVRQAPGKGLEWIACIYGGNNNPYYANWVNGRFTISRDNSKNTLYLQMNSLRAEDTAVYYCARKDINIGGAYELWGQGTLVTVSS VL: DIQMTQSPSSLSASVGDRVTITCQASQSISSSYLSWYQQKPGKAPKLLIYKASTLASGVPSRFSGSGSGTDFTLTISSLQPEDFATYYCQYSDWANSYGNAFGGGTKVEIK | binds | binds |  |
| ETN-1Rb (antibody, V domains shown) VH: QSVKESGGDLVKPGASLTLTCTASGIDFSAGYYMCWVRQAPGKGLELIACIYAGRSLNTFYASWAKGRFTISRASSTTVTLAMTSLTAADTATYFCARDGASSGYYFKLWGPGTLVTISS VL: ELDMTQTPASVEVAVGGTVTIKCQASQSIGSNLAWYQQKPGQRPNVLIYDASNLASGVSSRFKGSGSGTQFTLTISGGECADAATYYCQQGYSDNYLDNAFGGGTEVVVK |  |  | binds |
